{
  "source": "paper PMC11667670",
  "target": "VldE^MT3 domain (Spr1875^MT3), residues 266-380 (Streptococcus pneumoniae) (UniProt Q8DN78)",
  "assay": "AUC; sedimentation velocity, 48 krpm, 20 °C, 20 mM Tris-HCl pH 7.4, 150 mM NaCl, protein at 0.05 μM as printed, absorbance at 280 nm; single peak at s20,w 1.797 S (100%); both purified",
  "note": "No constants are given. Whether binding was seen depends on the method and setting.",
  "data": [
    {"substance": "VldE^MT3 domain (Spr1875^MT3), residues 266-380 (from UniProt Q8DN78 266-380) (domain or fragment)", "values": [
      {"measurement": "binding", "result": "no binding (tested: 0.05 μM)"}
    ]}
  ]
}
